Reference: patent US20120095193A1
Positions count from the first letter of the chain named. Results are given in words; binding and its absence hold for the method and conditions named. Some results given as binding are weak or reduced against the parent protein; the word gives no strength.

Amino acid sequences for entries named in this document (tags omitted). A change or cut given only in a name is not applied to a line headed by its entry.
UniProt Q9UNA0: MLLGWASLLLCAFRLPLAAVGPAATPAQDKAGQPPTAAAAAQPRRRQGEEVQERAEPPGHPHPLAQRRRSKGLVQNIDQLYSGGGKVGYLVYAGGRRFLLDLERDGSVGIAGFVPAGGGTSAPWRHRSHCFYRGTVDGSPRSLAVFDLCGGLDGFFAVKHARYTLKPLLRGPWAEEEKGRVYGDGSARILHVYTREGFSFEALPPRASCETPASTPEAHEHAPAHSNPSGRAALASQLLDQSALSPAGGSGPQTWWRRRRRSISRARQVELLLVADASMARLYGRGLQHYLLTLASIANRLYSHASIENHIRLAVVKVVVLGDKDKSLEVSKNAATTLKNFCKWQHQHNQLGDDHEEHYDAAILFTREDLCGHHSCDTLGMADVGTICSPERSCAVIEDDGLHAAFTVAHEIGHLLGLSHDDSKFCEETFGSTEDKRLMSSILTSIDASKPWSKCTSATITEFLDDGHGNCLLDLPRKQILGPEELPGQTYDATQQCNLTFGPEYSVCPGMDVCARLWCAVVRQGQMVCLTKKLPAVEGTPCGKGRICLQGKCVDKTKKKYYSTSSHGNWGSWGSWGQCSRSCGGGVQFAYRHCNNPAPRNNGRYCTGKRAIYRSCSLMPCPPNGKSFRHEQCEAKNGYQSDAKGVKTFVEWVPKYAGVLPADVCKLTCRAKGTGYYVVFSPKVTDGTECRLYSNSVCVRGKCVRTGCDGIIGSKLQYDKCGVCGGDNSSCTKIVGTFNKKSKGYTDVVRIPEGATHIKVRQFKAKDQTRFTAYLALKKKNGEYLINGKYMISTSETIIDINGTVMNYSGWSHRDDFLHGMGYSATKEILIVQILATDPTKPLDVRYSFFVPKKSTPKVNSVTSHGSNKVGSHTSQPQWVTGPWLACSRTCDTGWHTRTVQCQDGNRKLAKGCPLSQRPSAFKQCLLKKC

How the values were obtained:
[1] = target: human ADAMTS5 (human) (UniProt Q9UNA0); test: ELISA on coated recombinant human ADAMTS5 (0.2 ug/ml), antibody in culture supernatant, anti human kappa peroxidase, absorbance 490 nm
[2] = target: human ADAMTS5 (human) (UniProt Q9UNA0); test: ELISA on coated recombinant human ADAMTS5 (0.2 ug/ml), antibody in culture supernatant, anti human kappa peroxidase, OD 490 nm
[3] = target: canine ADAMTS5 (canine); test: orthologue cross-reactivity, binding/neutralization grade
[4] = target: cynomolgus monkey ADAMTS5 (cynomolgus monkey); test: as above
[5] = target: T1, mouse ADAMTS5 (mouse) (UniProt Q9R001); test: as above
T1 sequence (looked up): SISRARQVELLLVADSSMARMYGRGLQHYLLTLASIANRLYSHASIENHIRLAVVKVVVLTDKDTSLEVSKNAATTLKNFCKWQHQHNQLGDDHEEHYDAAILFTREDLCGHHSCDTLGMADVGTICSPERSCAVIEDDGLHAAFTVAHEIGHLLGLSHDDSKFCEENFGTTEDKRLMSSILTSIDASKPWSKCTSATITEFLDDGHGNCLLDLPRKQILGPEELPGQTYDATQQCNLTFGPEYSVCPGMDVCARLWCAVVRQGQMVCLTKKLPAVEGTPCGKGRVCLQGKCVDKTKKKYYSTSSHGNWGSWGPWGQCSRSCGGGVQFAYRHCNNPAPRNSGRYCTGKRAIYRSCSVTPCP

[6] = target: T2, rat ADAMTS5 (rat) (UniProt Q6TY19); test: orthologue cross-reactivity, method not specified, data not shown
T2 sequence: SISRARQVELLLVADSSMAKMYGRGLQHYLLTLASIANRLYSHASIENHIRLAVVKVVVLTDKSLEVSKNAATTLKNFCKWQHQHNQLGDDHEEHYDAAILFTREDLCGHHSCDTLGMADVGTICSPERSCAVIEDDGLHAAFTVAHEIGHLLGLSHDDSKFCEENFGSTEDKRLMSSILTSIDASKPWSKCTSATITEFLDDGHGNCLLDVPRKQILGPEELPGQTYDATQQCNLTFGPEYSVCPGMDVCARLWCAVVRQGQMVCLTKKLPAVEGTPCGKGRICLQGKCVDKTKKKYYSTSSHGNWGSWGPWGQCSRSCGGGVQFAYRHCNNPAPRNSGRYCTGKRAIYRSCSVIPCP

B1: BPC1634 (antibody, human IgG1, kappa, V domains shown)
VH: EVQLVESGGGLVQPGGSLRLSCAASGFTFSDAWMDWVRQAPGKGLEWVAEIRNKANNHARHYAESVKGRFTISRDNAKNSLYLQMNSLRAEDTAVYYCARTYYYGSSYGYCDVWGQGTLVTVSS
VL: DIQMTQSPSSLSASVGDRVTITCRTSENIYSYLAWYQQKPGKAPKLLIYNAKTLAEGVPSRFSGSGSGTDFTLTISSLQPEDFATYYCQHHYGTPWTFGQGTKLEIKR
B1 was tested, and the binding [1] was “binds”.

B2: BPC1642 (antibody, human IgG1, kappa, V domains shown)
VH: B1 VH with A99T
VL: B1 VL with I48V
With B2 the binding [1] was “binds”.

B3: BPC1643 (antibody, human IgG1, kappa, V domains shown)
VH: B1 VH with F29S
VL: B1 VL with I48V
In the case of B3, the binding [1] is reported as “binds”.

B4: BPC1644 (antibody, human IgG1, kappa, V domains shown)
VH: B1 VH with F29S, A99T
VL: B1 VL with I48V
With B4 the binding [1] was “binds”.

B5: BPC1645 (antibody, human IgG1, kappa, V domains shown)
VH: B1 VH with F29S, N76D, A99T
VL: B1 VL with I48V
For B5, the binding [1] was “binds”.

B6: BPC1646 (antibody, human IgG1, kappa, V domains shown)
VH: B1 VH with F29S, L81V, A99T
VL: B1 VL with I48V
B6 was tested, and the binding [1] was “binds”.

B7: BPC1647 (antibody, human IgG1, kappa, V domains shown)
VH: B1 VH with F29S, N76D, L81V, A99T
VL: B1 VL with I48V
B7 was tested, and the binding [1] was “binds”.

B8: BPC1622 (antibody, human IgG1, kappa, V domains shown)
VH: EVKLEESGGGLVQPGGSMKLSCAASGFTSSDAWMDWVRQSPEKGLEWVAEIRNKANNHARHYAESVKGRFTISRDDSKSSVYLQMNSLRAEDSGIYYCTRTYYYGSSYGYCDVWGTGTLVTVSS
VL: DIQMTQSPASLSASVGETVTITCRTSENIYSYLAWYQQKQGKSPQLLVYNAKTLAEGVPSRFSGSGSGTQFSLKINSLQPEDFGSYSCQHHYGTPWTFGGGTKLEIKR
For B8, the binding [1] was “binds”.

B9: BPC1648 (antibody, human IgG1, kappa, V domains shown)
VH: B1 VH
VL: B1 VL with K45Q, I48V
B9 was tested, and the binding [1] was “binds”.

B10: BPC1649 (antibody, human IgG1, kappa, V domains shown)
VH: B1 VH with A99T
VL: B1 VL with K45Q, I48V
For B10, the binding [1] was “binds”.

B11: BPC1650 (antibody, human IgG1, kappa, V domains shown)
VH: B1 VH with F29S
VL: B1 VL with K45Q, I48V
In the case of B11, the binding [1] is reported as “binds”.

B12: BPC1635 (antibody, human IgG1, kappa, V domains shown)
VH: B1 VH with A99T
VL: B1 VL
In the case of B12, the binding [1] is reported as “binds”.

B13: BPC1651 (antibody, human IgG1, kappa, V domains shown)
VH: B1 VH with F29S, A99T
VL: B1 VL with K45Q, I48V
In the case of B13, the binding [1] is reported as “binds”.

B14: BPC1652 (antibody, human IgG1, kappa, V domains shown)
VH: B1 VH with F29S, N76D, A99T
VL: B1 VL with K45Q, I48V
In the case of B14, the binding [1] is reported as “binds”.

B15: BPC1653 (antibody, human IgG1, kappa, V domains shown)
VH: B1 VH with F29S, L81V, A99T
VL: B1 VL with K45Q, I48V
With B15 the binding [1] was “binds”.

B16: BPC1654 (antibody, human IgG1, kappa, V domains shown)
VH: B1 VH with F29S, N76D, L81V, A99T
VL: B1 VL with K45Q, I48V
With B16 the binding [1] was “binds”.

B17: BPC1656 (antibody, human IgG1, kappa, V domains shown)
VH: EVQLLESGGGLVQPGGSLRLSCAASGFTFSDAWMDWVRQAPGKGLEWVSEIRHKANDHAIFYDESVKGRFTISRDNSKNTLYLQMNSLRAEDTAVYYCTSPFAYWGQGTLVTVSS
VL: DIQMTQSPSSLSASVGDRVTITCKASQSVGTTIVWYQQKPGKAPKLLIYSASNRHTGVPSRFSGSGSGTDFTLTISSLQPEDFATYYCQQYTSYPFTFGQGTKLEIKR
For B17, the binding [2] was “binds”.

B18: BPC1657 (antibody, human IgG1, kappa, V domains shown)
VH: B17 VH with N76D
VL: B17 VL
In the case of B18, the binding [2] is reported as “binds”.

B19: BPC1658 (antibody, human IgG1, kappa, V domains shown)
VH: B17 VH with S49A, L81V
VL: B17 VL
For B19, the binding [2] was “binds”.

B20: BPC1636 (antibody, human IgG1, kappa, V domains shown)
VH: B1 VH with F29S
VL: B1 VL
B20 was tested, and the binding [1] was “binds”.

B21: BPC1637 (antibody, human IgG1, kappa, V domains shown)
VH: B1 VH with F29S, A99T
VL: B1 VL
With B21 the binding [1] was “binds”.

B22: BPC1638 (antibody, human IgG1, kappa, V domains shown)
VH: B1 VH with F29S, N76D, A99T
VL: B1 VL
For B22, the binding [1] was “binds”.

B23: BPC1639 (antibody, human IgG1, kappa, V domains shown)
VH: B1 VH with F29S, L81V, A99T
VL: B1 VL
With B23 the binding [1] was “binds”.

B24: BPC1640 (antibody, human IgG1, kappa, V domains shown)
VH: B1 VH with F29S, N76D, L81V, A99T
VL: B1 VL
With B24 the binding [1] was “binds”.

B25: BPC1641 (antibody, human IgG1, kappa, V domains shown)
VH: B1 VH
VL: B1 VL with I48V
In the case of B25, the binding [1] is reported as “binds”.

B26: 2D3.1D4 (antibody, V domains shown)
VH: EVKLEESGGGLVQPGGSMKLSCAASGITFSDAWMDWVRQSPEKGLEWVADIRNTANNHATFYAESVKGRFTISRDDSKSTVYLQMNTLRPEDTGIYYCTSPFAYWGQGTLVTVSA
VL: DIVMTQSQKFMSTTVGDRVSITCKASQNVGTAVVWFQQKPGQSPKLLIYSASNRYTRVPDRFTGSGSGTDFTLTISNVQSEDLADYFCQQYVNYPFTFGSGTKLEIKR
In the case of B26, the binding [3] is reported as “binds”, the binding [4] is reported as “binds” and the binding [5] is reported as “binds”. For the same binder, the binding [6] was “binds”.

B27: 3A12.1D7 (antibody, V domains shown)
VH: EVKFEESGGGLVQPGGSMKLSCAASGFIFSDAWMDWVRQSPEKGLEWVAEIRHKANDYAIFYDESVKGRFTISRDDSKSIVYLQMNNLRPEDTGIYYCTSPFAYWGQGTLVTVSA
VL: B26 VL with T13V, N28S, A32T, V33I, F36Y, Y55H, R57G, T72I, V92S, N93S
For B27, the binding [3] was “binds”, the binding [4] was “binds” and the binding [5] was “binds”. The binding [6] was “binds”.

B28: 5F10.1H6 (antibody, V domains shown)
VH: B27 VH with F4L, I28T, Y58H, N87S
VL: DIVMTQSQRFMSVTVGDRVSITCKASQSVGTTIVWYQQKPGQSPKLLIYSASTRYTGVPDRFTGGGSGTDFILTINNVQSEDLADYFCQQYSSYPFTFGSGTKLEIKR
With B28 the binding [3] was “binds”, the binding [4] was “binds” and the binding [5] was “binds”. The binding [6] was “binds”.

B29: 12F4.1H7 (antibody, IgG2, V domains shown)
VH: B27 VH with F4L, A23T, I28T, Y58H, S79N, N87S
VL: B28 VL with R9K, T53N, Y55H, G65S, S92T
With B29 the binding [3] was “binds”, the binding [4] was “binds” and the binding [5] was “binds”. The binding [6] was “binds”.

B30: 7B4.1E11 (antibody, IgG1, V domains shown)
VH: B8 VH with L119T
VL: B8 VL
For B30, the binding [3] was “binds”, the binding [4] was “binds” and the binding [5] was “binds”. For the same binder, the binding [6] was “binds”.
